Experimental data reported in article PMC11497446.
These are yes or no findings as the source states them, for the method shown. In cells and extracts the contact can be indirect. Some entries that bind do so weakly or less than the wild type.

Amino acid sequences for entries named in this document (tags omitted). Residues count along the entry.
UniProt P12830, residues 731-882: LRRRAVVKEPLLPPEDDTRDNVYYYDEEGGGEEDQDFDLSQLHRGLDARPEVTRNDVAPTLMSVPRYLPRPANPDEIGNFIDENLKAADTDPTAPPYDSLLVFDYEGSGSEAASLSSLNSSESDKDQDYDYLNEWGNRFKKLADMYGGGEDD
UniProt P51784: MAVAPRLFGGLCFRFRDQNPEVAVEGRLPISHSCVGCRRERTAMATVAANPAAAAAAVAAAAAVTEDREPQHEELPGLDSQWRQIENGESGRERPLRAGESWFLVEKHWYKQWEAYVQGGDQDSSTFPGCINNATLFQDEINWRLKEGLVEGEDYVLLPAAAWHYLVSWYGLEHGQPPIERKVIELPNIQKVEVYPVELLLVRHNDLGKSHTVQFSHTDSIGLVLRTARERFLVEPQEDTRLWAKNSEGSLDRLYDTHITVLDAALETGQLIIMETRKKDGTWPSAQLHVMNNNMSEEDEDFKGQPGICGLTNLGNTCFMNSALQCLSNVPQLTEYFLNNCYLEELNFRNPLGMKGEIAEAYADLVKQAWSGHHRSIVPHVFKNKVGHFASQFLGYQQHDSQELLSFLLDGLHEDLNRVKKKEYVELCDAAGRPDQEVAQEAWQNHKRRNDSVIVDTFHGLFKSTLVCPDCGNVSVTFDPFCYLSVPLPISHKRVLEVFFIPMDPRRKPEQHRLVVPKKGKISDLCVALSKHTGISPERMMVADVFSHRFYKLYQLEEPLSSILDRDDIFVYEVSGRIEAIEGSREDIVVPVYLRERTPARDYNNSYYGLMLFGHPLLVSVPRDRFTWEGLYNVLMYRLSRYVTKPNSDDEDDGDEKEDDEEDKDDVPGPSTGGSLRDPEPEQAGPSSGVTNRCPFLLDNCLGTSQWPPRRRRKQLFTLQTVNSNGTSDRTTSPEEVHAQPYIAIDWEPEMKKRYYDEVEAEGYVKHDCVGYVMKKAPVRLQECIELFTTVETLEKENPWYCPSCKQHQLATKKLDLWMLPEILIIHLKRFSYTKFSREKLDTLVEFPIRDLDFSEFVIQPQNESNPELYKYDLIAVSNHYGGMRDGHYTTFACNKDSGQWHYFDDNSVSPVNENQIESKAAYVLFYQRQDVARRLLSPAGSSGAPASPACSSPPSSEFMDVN

Biological target: Flag-E-cadherin-C (731-882aa) (human) (UniProt P12830)
Experiment: co-IP; co-immunoprecipitation of USP11 and E-cadherin-C (731-882aa); cells and antibody not given

- binding: binds
Substance: USP11 in the co-immunoprecipitation with E-cadherin-C (from UniProt P51784 1-963) (enzyme)
